# Experimental data from patent publication US20150181901A1, “Compositions and Methods for Tissue Storage” (priority 2012, published 2015).
# Test: Light microscopy (hematoxylin and eosin) of trehalose-treated meat after two weeks of freeze/thaw cycling (pork)
# Conditions: six freeze/thaw cycles over two weeks
# Experimental: Between the first week (three freeze/thaw cycles) and the second week (three more freeze/thaw cycles), there was no re-exposure to trehalose. All samples were removed from the refrigerator. Liquid was in most of the sample bags. Fluid was removed by a pipette and the volume was recorded, and the meat sample was weighed. Samples of about 1-2 grams were taken using a no. 10 scalpel, and placed in formalin. FIG. 6 discloses the volume of fluid lost during the second week of freeze/thaw cycles. […] Samples were taken of meat treated with 0%, 5%, 10%, or 15%, trehalose, where the samples were fixed in formalin, stained with hematoxylin and eosin, and examined with a microscope, under moderate power or high power. […] The characteristic of a bundle, or a myofibril, as being broken can be quantified in the following way. […] The characteristic of a bundle, or a myofibril, being broken and moved around can be quantified as follows. First, the overall longitudinal axis of the bundle or fibril is determined. […] Fourth, the angle of the edge, with respect to the overall longitudinal axis is measured. Fifth, angles of ten different fragments are measured. […] If the sum of the angles is zero degrees, that is, if all of the fragments are aligned with the overall longitudinal axis, then the sample of meat is determined (or defined) to be fragmented, but not moved around. […]
smiles,measurement,setting,value
"OC[C@H]1O[C@H](O[C@H]2O[C@H](CO)[C@@H](O)[C@H](O)[C@H]2O)[C@H](O)[C@@H](O)[C@@H]1O [trehalose, trehalose dihydride]",horizontal fractures compared with 0% trehalose-treated meat,5% trehalose or 10% trehalose,"Increases, but to a lesser degree than with 15% trehalose"
same,horizontal fractures compared with 0% trehalose-treated meat,15% trehalose,increase in horizontal fractures was seen
